# Assay results published in article doi:10.1101/2023.04.17.537183.
# Amino acid sequences for entries named in this document (tags omitted). A change or cut given only in a name is not applied to a line headed by its entry.
# UniProt Q8SY69: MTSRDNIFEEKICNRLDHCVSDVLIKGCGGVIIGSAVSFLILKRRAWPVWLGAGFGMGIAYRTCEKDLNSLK
# UniProt Q5XKP0: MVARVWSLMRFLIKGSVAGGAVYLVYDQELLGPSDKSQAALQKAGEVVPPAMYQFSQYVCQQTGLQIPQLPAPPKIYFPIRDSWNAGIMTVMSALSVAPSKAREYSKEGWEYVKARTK
# T1: DmMIC60 (Mitofilin/Dmel_CG6455) (D. melanogaster (endogenous in flies)) (UniProt P91928)
# T1 sequence: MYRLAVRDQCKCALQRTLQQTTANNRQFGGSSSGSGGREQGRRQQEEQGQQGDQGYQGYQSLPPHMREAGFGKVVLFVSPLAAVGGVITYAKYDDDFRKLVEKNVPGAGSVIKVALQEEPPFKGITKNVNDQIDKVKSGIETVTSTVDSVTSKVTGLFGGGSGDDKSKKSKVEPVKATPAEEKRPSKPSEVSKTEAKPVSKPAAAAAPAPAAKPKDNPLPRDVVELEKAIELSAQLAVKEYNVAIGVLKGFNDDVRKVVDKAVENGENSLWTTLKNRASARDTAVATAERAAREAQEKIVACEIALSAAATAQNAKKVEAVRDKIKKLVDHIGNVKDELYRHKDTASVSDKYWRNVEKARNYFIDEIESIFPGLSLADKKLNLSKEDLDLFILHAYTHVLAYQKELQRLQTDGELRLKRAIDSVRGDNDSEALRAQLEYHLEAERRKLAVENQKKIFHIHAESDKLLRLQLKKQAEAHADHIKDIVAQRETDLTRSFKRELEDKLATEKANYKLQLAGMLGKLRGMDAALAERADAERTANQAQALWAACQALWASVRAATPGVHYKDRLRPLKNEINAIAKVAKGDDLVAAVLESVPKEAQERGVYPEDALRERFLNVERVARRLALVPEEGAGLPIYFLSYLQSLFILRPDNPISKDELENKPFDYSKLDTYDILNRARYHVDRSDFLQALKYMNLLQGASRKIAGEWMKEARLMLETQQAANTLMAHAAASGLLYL
# What was measured:
# Experiment in all cases: co-IP
# [1] = molecular target: T1, DmMIC60 (Mitofilin/Dmel_CG6455) (D. melanogaster (endogenous in flies))
# [2] = molecular target: Dmel_CG41128-FLAG (DmMIC10b-FLAG) (D. melanogaster) (UniProt Q8SY69)
# [3] = molecular target: Dmel_CG41128/MINOS1b/DmMIC10b (D. melanogaster (endogenous in flies)) (UniProt Q8SY69)
binding [3],Molecule,also measured
–,Dmel_CG41128/MINOS1b/DmMIC10b (from UniProt Q8SY69),binding [1]: binds
–,"MIC13 (human, HeLa) (from UniProt Q5XKP0 1-118)",binding [2]: binds
binds,"DmMIC60 (Mitofilin/Dmel_CG6455) (protein, UniProt P91928 1-739) MYRLAVRDQCKCALQRTLQQTTANNRQFGGSSSGSGGREQGRRQQEEQGQQGDQGYQGYQSLPPHMREAGFGKVVLFVSPLAAVGGVITYAKYDDDFRKLVEKNVPGAGSVIKVALQEEPPFKGITKNVNDQIDKVKSGIETVTSTVDSVTSKVTGLFGGGSGDDKSKKSKVEPVKATPAEEKRPSKPSEVSKTEAKPVSKPAAAAAPAPAAKPKDNPLPRDVVELEKAIELSAQLAVKEYNVAIGVLKGFNDDVRKVVDKAVENGENSLWTTLKNRASARDTAVATAERAAREAQEKIVACEIALSAAATAQNAKKVEAVRDKIKKLVDHIGNVKDELYRHKDTASVSDKYWRNVEKARNYFIDEIESIFPGLSLADKKLNLSKEDLDLFILHAYTHVLAYQKELQRLQTDGELRLKRAIDSVRGDNDSEALRAQLEYHLEAERRKLAVENQKKIFHIHAESDKLLRLQLKKQAEAHADHIKDIVAQRETDLTRSFKRELEDKLATEKANYKLQLAGMLGKLRGMDAALAERADAERTANQAQALWAACQALWASVRAATPGVHYKDRLRPLKNEINAIAKVAKGDDLVAAVLESVPKEAQERGVYPEDALRERFLNVERVARRLALVPEEGAGLPIYFLSYLQSLFILRPDNPISKDELENKPFDYSKLDTYDILNRARYHVDRSDFLQALKYMNLLQGASRKIAGEWMKEARLMLETQQAANTLMAHAAASGLLYL",–
binds,"DmMIC13 (QIL1/Dmel_CG760) (protein, UniProt Q9VVH3 1-122) MVLGFLVRGGLVAATVYYTQKVGIWGDSDQTDKLYNDIKSELRPHVQKLEKQLPFEVPQLPKTGEMRFLAKHYYNEGVKNTFRFIHMLPCYAGRGLKKVKDTFQDFAQSPAIAGGAESSPPK",–

# No constants are given. Whether binding was seen depends on the method and setting. In cells and extracts the contact can be indirect. Binding calls can cover weak binding; strength is not graded here.
